According to article PMC3205025:
Where two headings read alike, the source gives them in different places. These are yes or no findings as the source states them, for the method shown. In cells and extracts the contact can be indirect. Some binding calls cover weakened binding; strength is not graded here.

Amino acid sequences for entries named in this document (tags omitted).
UniProt P11531: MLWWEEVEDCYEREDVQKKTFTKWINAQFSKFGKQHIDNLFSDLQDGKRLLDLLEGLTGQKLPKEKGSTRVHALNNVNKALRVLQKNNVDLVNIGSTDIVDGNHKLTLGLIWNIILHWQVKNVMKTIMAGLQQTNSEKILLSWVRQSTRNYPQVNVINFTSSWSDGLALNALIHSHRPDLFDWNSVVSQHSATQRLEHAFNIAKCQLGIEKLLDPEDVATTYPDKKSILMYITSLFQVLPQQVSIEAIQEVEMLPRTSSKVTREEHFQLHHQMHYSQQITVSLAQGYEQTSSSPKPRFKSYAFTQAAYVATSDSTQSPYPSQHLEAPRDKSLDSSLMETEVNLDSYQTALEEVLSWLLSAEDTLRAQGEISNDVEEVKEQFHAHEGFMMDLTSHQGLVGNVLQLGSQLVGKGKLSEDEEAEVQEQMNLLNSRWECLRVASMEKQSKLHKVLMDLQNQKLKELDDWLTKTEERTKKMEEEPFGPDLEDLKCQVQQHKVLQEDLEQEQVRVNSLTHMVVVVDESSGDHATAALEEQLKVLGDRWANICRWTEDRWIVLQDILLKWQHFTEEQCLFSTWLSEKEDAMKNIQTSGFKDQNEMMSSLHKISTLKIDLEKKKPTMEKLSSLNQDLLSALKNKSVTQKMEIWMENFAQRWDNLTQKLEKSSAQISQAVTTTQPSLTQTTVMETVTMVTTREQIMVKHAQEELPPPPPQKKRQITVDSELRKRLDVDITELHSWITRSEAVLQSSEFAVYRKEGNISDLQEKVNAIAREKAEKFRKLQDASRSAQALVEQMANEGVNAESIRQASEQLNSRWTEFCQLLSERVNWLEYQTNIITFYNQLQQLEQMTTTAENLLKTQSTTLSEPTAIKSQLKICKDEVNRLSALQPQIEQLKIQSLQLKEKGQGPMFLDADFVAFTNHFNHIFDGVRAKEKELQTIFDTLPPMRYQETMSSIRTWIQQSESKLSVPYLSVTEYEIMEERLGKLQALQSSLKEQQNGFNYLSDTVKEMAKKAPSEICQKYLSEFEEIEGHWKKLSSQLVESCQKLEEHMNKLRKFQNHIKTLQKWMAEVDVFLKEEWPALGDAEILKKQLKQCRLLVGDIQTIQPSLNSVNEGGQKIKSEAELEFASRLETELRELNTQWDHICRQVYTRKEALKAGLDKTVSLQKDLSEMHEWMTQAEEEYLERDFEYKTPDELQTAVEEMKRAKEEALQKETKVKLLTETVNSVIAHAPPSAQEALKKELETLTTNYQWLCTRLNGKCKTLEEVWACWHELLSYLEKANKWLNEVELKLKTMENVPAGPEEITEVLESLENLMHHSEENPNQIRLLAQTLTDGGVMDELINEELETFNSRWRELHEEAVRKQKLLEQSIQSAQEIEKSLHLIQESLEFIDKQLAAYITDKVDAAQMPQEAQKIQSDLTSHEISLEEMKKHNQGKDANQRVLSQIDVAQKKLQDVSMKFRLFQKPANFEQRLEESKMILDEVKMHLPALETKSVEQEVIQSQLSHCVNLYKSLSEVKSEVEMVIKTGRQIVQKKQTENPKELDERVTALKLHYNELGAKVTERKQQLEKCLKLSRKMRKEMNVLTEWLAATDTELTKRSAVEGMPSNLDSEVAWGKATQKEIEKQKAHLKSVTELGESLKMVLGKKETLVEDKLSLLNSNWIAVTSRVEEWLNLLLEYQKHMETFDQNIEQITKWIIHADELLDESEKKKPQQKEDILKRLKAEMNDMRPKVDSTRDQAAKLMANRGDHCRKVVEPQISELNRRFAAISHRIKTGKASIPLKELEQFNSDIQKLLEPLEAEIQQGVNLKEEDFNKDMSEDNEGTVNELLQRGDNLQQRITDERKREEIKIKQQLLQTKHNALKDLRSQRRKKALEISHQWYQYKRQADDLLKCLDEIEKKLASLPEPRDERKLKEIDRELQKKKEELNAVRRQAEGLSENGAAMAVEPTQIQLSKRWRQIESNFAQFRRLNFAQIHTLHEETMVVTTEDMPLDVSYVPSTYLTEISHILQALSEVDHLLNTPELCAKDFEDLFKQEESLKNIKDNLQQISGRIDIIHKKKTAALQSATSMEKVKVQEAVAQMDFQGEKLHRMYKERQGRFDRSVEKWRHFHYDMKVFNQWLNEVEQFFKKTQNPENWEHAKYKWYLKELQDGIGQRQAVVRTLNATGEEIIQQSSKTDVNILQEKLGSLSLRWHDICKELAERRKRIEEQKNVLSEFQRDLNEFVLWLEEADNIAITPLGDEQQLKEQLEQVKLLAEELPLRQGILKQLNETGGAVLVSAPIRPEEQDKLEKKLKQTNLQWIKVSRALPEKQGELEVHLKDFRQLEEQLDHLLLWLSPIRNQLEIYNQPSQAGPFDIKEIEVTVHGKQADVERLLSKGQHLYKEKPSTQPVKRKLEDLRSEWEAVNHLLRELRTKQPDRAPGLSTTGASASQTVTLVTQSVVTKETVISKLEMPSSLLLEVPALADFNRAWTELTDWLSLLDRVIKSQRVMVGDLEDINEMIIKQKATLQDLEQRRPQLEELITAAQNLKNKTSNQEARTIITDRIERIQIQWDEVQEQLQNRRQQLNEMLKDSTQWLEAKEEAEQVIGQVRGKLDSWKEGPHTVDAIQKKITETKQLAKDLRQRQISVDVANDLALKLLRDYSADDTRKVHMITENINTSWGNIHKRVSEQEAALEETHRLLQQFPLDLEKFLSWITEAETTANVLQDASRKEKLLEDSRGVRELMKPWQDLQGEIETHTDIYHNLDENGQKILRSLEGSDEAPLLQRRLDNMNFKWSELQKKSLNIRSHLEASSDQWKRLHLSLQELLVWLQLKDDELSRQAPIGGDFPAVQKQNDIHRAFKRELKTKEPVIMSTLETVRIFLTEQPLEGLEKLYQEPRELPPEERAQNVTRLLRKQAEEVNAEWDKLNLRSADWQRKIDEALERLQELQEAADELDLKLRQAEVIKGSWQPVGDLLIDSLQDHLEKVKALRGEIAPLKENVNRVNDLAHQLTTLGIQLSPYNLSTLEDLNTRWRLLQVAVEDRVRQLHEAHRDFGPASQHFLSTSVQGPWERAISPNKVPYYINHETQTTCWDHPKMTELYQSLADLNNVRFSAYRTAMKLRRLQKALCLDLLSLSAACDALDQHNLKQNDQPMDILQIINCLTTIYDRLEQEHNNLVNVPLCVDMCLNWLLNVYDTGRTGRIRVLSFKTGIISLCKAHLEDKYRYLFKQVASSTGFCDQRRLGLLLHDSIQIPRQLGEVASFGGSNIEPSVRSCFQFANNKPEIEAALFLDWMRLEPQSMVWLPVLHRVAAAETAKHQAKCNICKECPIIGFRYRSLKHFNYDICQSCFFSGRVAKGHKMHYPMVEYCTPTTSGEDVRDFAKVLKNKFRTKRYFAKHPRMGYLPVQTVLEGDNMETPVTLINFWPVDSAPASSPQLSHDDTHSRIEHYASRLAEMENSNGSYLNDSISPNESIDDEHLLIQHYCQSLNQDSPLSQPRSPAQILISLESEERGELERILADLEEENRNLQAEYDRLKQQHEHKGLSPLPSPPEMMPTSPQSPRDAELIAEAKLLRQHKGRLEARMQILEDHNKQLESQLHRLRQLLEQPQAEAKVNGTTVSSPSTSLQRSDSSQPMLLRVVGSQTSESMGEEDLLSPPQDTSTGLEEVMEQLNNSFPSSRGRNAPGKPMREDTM
UniProt P70170: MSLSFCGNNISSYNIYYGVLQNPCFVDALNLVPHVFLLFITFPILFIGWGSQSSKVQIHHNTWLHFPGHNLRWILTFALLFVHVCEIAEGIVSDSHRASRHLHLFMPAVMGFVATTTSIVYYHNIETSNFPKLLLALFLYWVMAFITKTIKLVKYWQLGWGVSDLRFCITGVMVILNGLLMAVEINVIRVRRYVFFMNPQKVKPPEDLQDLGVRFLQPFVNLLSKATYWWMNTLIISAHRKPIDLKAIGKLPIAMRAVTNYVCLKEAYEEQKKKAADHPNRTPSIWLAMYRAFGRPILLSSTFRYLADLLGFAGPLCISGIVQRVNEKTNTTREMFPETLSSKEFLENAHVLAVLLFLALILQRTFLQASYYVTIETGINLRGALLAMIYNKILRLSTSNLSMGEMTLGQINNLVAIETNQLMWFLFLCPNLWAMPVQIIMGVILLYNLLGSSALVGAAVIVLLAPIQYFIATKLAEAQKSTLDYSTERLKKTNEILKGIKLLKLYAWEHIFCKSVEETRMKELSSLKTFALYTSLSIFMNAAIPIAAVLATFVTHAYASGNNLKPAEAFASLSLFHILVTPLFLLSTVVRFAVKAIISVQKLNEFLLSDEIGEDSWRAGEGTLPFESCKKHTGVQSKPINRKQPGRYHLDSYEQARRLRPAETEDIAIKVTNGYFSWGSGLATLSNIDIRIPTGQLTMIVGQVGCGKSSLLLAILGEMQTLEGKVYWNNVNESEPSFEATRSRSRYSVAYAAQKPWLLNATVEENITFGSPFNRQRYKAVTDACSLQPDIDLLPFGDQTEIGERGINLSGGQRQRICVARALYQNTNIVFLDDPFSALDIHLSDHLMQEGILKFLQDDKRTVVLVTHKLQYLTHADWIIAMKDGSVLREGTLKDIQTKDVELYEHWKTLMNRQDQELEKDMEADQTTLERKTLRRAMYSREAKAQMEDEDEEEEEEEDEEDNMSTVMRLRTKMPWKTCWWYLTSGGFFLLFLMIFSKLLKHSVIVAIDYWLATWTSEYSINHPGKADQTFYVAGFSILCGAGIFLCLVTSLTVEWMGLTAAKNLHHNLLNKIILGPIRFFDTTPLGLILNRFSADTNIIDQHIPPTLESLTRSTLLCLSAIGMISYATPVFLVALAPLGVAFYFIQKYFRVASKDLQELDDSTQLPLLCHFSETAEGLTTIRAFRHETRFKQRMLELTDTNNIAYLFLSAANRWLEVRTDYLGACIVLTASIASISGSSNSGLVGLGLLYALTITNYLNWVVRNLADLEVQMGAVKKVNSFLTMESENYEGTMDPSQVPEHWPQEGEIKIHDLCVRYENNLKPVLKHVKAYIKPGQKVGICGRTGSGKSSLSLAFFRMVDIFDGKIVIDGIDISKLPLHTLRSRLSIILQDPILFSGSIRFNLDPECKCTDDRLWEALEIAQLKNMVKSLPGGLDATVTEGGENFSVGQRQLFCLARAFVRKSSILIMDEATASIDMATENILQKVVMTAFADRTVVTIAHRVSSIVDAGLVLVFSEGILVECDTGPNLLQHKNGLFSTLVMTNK
UniProt P07310: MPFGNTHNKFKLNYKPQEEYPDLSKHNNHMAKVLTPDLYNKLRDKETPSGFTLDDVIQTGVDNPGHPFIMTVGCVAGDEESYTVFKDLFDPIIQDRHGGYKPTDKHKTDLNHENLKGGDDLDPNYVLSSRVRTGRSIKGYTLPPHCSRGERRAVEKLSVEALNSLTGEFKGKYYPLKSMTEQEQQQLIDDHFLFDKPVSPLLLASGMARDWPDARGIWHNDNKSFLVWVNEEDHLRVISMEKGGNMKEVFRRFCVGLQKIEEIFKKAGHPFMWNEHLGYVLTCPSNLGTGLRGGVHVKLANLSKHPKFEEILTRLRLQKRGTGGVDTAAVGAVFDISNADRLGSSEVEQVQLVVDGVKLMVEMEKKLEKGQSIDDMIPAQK

How the values were obtained:
[1] = molecular target: full-length dystrophin (Dys427) (mouse (endogenous in heart)) (UniProt P11531); test: co-IP; wt mouse heart (ventricular wall) lysate in buffer II (HEPES 20 mM, NaCl 150 mM, Triton X100 1%, pH 7.5); IP with anti-DYS1 (anti Dys427) overnight at 4°C, protein A/G PLUS-Agarose; western blot; mdx lysate as control without dystrophin
[2] = molecular target: T1, Kir6.2 subunit of the KATP channel (mouse (endogenous in heart)) (UniProt Q61743); test: co-IP; wt mouse heart lysate in buffer II; IP with anti Kir6.2 or anti SUR2A overnight at 4°C, protein A/G PLUS-Agarose; western blot for CKm, Dys427, Kir6.2, SUR2A
T1 sequence: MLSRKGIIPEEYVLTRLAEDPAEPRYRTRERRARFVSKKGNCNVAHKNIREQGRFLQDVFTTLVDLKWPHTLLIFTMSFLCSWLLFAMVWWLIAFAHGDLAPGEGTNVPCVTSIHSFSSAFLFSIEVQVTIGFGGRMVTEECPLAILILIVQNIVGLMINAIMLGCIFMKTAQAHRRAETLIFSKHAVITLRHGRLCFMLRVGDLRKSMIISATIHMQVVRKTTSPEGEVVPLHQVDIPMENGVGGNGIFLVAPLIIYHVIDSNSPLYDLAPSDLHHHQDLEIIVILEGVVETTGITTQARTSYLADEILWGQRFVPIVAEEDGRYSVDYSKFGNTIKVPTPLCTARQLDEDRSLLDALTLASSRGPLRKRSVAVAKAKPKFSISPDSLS

[3] = molecular target: SUR2A subunit of the KATP channel (mouse (endogenous in heart)) (UniProt P70170); test: as above
[4] = molecular target: full-length dystrophin (Dys427) (mouse (endogenous in heart)) (UniProt P11531); test: co-IP; wt mouse heart (ventricular wall) lysate in buffer II (HEPES 20 mM, NaCl 150 mM, Triton X100 1%, pH 7.5); IP with anti-DYS1 (anti Dys427) overnight at 4°C, protein A/G PLUS-Agarose; western blot; mdx lysate as control without dystrophin; remark: listed apart in the source

creatine kinase muscle isoform (CKm) (from UniProt P07310 1-381) (enzyme)
binding [1]: binds

full-length dystrophin (Dys427) (from UniProt P11531 1-3678)
binding [2]: binds
binding [3]: binds

B1: Kir6.2 subunit of the KATP channel (protein, UniProt Q61743 1-390)
chain: T1 sequence
binding [4]: binds

B2: α-Syntrophin (protein, UniProt Q61234 1-503)
chain: MASGRRAPRTGLLELRCGAGSGAGGERWQRVLLSLAEDALTVSPADGEPGPEPEPAQLNGAAEPGAAPPQLPEALLLQRRRVTVRKADAGGLGISIKGGRENKMPILISKIFKGLAADQTEALFVGDAILSVNGEDLSSATHDEAVQALKKTGKEVVLEVKYMKEVSPYFKNSAGGTSVGWDSPPASPLQRQPSSPGPQPRNLSEAKHVSLKMAYVSRRCTPTDPEPRYLEICAADGQDAVFLRAKDEASARSWAGAIQAQIGTFIPWVKDELQALLTATGTAGSQDIKQIGWLTEQLPSGGTAPTLALLTEKELLFYCSLPQSREALSRPTRTAPLIATSSAHRLVHSGPSKGSVPYDAELSFALRTGTRHGVDTHLFSVESPQELAAWTRQLVDGCHRAAEGIQEVSTACTWNGRPCSLSVHIDKGFTLWAAEPGAARAMLLRQPFEKLQMSSDDGTSLLFLDFGGAEGEIQLDLHSCPKTMVFIIHSFLSAKVTRLGLLA
binding [4]: binds
